Publication PMC5844867
Results are given in words; binding and its absence hold for the method and conditions named. Binding seen in cells or lysates may run through a third protein. A yes stands for co-enrichment or nearness to the bait. Other partners may have been found.

Amino acid sequences for entries named in this document (tags omitted). Residues count along the entry.
UniProt Q60631, residues 60-152: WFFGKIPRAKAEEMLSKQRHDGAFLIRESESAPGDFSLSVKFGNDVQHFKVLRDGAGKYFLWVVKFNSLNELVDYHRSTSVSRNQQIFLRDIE
UniProt Q13588: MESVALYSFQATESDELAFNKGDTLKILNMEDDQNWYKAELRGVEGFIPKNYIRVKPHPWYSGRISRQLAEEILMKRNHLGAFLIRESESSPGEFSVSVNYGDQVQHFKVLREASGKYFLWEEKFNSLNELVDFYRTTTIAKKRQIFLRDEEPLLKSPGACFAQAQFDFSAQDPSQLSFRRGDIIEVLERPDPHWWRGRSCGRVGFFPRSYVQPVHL
UniProt P20273, residues 20-847: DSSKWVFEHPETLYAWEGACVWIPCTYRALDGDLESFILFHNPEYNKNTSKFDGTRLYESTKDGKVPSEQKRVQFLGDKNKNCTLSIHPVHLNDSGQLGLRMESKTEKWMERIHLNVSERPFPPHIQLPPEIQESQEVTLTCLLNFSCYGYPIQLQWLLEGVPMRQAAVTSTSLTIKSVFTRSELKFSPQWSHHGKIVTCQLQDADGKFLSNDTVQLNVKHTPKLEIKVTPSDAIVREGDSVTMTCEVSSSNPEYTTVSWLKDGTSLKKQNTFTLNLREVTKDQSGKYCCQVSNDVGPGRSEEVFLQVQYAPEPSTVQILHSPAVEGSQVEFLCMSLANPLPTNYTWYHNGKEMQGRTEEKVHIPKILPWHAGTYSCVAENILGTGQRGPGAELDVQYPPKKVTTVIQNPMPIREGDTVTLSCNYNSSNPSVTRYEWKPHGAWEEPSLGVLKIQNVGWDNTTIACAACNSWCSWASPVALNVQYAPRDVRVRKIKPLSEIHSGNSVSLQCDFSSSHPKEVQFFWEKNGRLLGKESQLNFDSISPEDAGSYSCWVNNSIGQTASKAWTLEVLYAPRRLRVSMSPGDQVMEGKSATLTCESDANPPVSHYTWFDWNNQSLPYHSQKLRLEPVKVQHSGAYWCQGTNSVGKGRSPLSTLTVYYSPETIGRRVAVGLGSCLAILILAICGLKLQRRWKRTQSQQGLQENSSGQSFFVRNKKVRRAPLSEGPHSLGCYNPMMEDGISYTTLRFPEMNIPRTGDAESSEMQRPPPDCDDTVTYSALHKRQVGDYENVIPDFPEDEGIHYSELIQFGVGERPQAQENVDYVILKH
UniProt P11912, residues 33-226: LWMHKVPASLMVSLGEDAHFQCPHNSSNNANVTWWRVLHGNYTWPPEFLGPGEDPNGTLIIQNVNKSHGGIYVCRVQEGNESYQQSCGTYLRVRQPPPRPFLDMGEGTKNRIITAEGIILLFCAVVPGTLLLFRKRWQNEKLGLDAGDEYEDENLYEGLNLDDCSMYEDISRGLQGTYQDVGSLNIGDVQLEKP
UniProt P62993: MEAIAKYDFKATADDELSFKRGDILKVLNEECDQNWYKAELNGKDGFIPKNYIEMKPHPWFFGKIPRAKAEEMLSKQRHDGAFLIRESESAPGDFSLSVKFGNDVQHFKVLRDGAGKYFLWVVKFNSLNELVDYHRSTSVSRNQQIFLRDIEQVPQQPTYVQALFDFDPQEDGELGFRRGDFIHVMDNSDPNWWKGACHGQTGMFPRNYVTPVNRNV

T1: biotinylated human-ε-phospho-ITT peptide (human)
T1 sequence (peptide, phosphotyrosine (D(p)YTN); biotin on the N-terminus): RPQTSLDYTNVLQPHA


Assays:
[1] = target: T1, biotinylated human-ε-phospho-ITT peptide (human); assay: affinity purification with mass spectrometry; biotinylated phospho-ITT peptide as bait, streptavidin-sepharose, lysates of human B cells in 1% NP40 lysis buffer, 4 °C; SILAC, with a non-phosphorylated peptide and non-labeled cells as control; only the target purified
[2] = target: Grb2 SH2 domain fused to GST (mouse) (UniProt Q60631); assay: affinity purification with mass spectrometry; Grb2 SH2 domain as bait, lysates of DG75 cells activated via their endogenous mIgM-BCR; SILAC; only the target purified

Molecule	binding [1]	binding [2]
Grb2-related adaptor protein (GRAP) (from UniProt Q13588 1-217)	binds	
CD22 (from UniProt P20273 20-847) (receptor)		binds
Igα (CD79A) (from UniProt P11912 33-226) (receptor)		binds
growth factor receptor-bound 2 (Grb2) (from UniProt P62993 1-217)	binds	
Gab1 (protein, UniProt Q13480 1-694) MSGGEVVCSGWLRKSPPEKKLKRYAWKRRWFVLRSGRLTGDPDVLEYYKNDHAKKPIRIIDLNLCQQVDAGLTFNKKEFENSYIFDINTIDRIFYLVADSEEEMNKWVRCICDICGFNPTEEDPVKPPGSSLQAPADLPLAINTAPPSTQADSSSATLPPPYQLINVPPHLETLGIQEDPQDYLLLINCQSKKPEPTRTHADSAKSTSSETDCNDNVPSHKNPASSQSKHGMNGFFQQQMIYDSPPSRAPSASVDSSLYNLPRSYSHDVLPKVSPSSTEADGELYVFNTPSGTSSVETQMRHVSISYDIPPTPGNTYQIPRTFPEGTLGQTSKLDTIPDIPPPRPPKPHPAHDRSPVETCSIPRTASDTDSSYCIPTAGMSPSRSNTISTVDLNKLRKDASSQDCYDIPRAFPSDRSSSLEGFHNHFKVKNVLTVGSVSSEELDENYVPMNPNSPPRQHSSSFTEPIQEANYVPMTPGTFDFSSFGMQVPPPAHMGFRSSPKTPPRRPVPVADCEPPPVDRNLKPDRKVKPAPLEIKPLPEWEELQAPVRSPITRSFARDSSRFPMSPRPDSVHSTTSSSDSHDSEENYVPMNPNLSSEDPNLFGSNSLDGGSSPMIKPKGDKQVEYLDLDLDSGKSTPPRKQKSSGSGSSVADERVDYVVVDQQKTLALKSTREAWTDGRQSTESETPAKSVK		binds
